PubChem BioAssay AID540256 (National Center for Advancing Translational Sciences (NCATS), 2011)
“And” between values parts separate entries of the source, which are not always exact repeats. Equal entries are not always repeated. In all, about 300,000 compounds went through this assay and about 3,700 (1.2%) were called active. The shares of active, inactive and inconclusive entries below differ from those in the screen. The call rests on the fitted dose curve; tested in HEK293 cells. Where the call is inconclusive, the potency comes from a doubtful curve fit.

Experiment: qHTS for Inhibitors of binding or entry into cells for Lassa Virus; further: nearly all actives have a fitted effect of over 50% in size
Conditions: Lassa virus pseudotype entry inhibition, cell reporter; series mostly up to 37.9 µM
Potency means the concentration at half of the fitted maximal effect.

SMILES	Potency
CC(=O)CSc1ccc(-c2nc3cc(C)c(C)cc3[nH]2)cn1	inconclusive: 1.58 µM [inhibitor, full curve, poor fit]
CC(=NNC(=S)N1CCN(c2ccccn2)CC1)c1nccs1	inconclusive: 3.16 µM [inhibitor, partial curve]
CC1=C(CC(=O)O)c2cc(F)ccc2/C1=C\c1ccc(S(C)(=O)=O)cc1	inconclusive: 0.58 µM [activator, partial curve, poor fit]
C=CCn1c(CCC(O)COCCCCC)n[nH]c1=S (stereo unspecified)	inactive
Cc1cccc(N2CC(O)(c3cccs3)[N+]3=C2CCCCC3)c1 (stereo unspecified)	inconclusive: 11.2 µM [inhibitor, single point]
CCCCOC(=O)c1ccc(OC(=O)c2cccnc2)cc1	inactive
COc1ccccc1C1CCN(c2ccc(CO)cc2[N+](=O)[O-])CC1	inconclusive: 35.5 µM [inhibitor, partial curve, poor fit]
Cc1nc2sc3c(c2c(=O)n1N)CCC3	inconclusive: 0.631 µM [inhibitor, full curve, poor fit]
CCc1ccc2c(c1)C(c1ccc([N+](=O)[O-])cc1)=NNC(c1ccc(F)cc1)=N2	inactive
COc1ccc(C(=O)Nc2nc(-c3cccs3)cs2)cc1	inconclusive: 35.5 µM [inhibitor, single point]
COc1ccc(CN(C)C(=O)c2ccc(NS(=O)(=O)c3ccc(F)cc3)cc2)c(OC)c1	inconclusive: 11.2 µM [inhibitor, partial curve, poor fit]
Oc1c(Br)cc(-c2ccccc2)cc1Br	inactive
COc1ccc(/C=C2\COc3ccccc3C2=O)c(OC)c1	inactive
CCOc1ccc(C(=O)Nc2cc(-c3nc4cc(OC)ccc4o3)ccc2C)cc1[N+](=O)[O-]	inactive
Cc1ccc(Cl)cc1NC(=O)CSc1nc2ccccc2c2nc(-c3ccccc3)nn12	inconclusive: 15.8 µM [activator, single point]
CCOC(=O)C1CCN(C(=O)c2nn(-c3ccc(OC)c(Cl)c3)c(=O)c3c2c2ccccc2n3C)CC1	inconclusive: 35.5 µM [inhibitor, single point]
COc1ccc(-c2cn3cccnc3n2)cc1NC(=O)C1CC1	inactive
COc1ccc2[nH]c3c(c2c1)CCn1c-3nc2ccccc2c1=O	inactive
COc1cc(C(=O)OCC(=O)Nc2ccc(SC(F)F)cc2)cc(OC)c1OC	inactive
O=C(Nc1nnc(C2CCCCC2)s1)c1cccs1	inconclusive: 29.1 µM [inhibitor, single point]
CCn1c(=O)n(-c2ccc3c(c2)OCO3)c2nc(-c3ccc(C(C)C)cc3)nc(C(N)=O)c21	inconclusive: 10 µM [inhibitor, partial curve, poor fit]
COc1ccc(OC)c(NC(=O)Cn2c(=O)c3cccn3c3ccccc32)c1	inconclusive: 35.5 µM [inhibitor, single point]
Cc1ccc(S(=O)(=O)CC(=O)N2CCN(c3ccc(F)cc3)CC2)cc1	inconclusive: 35.5 µM [inhibitor, partial curve, poor fit]
COc1ccc(OC)c(/C=N/NC(=O)c2cnccn2)c1	inactive

SMILES	Potency
C=CCc1cccc(/C=N/NC(=O)C(C)Nc2cccc(C)c2)c1O (stereo unspecified)	active: 11.2 µM
OC1CCCN(Cc2ccc3ccc4cccc5ccc2c3c45)C1 (stereo unspecified)	inactive
CC(=O)Nc1ccc2c(c1)Cc1cc(N3C(=O)C=CC3=O)ccc1-2	inconclusive: 35.5 µM [inhibitor, single point]
COc1cccc(N2CCN(C(=O)C3CCCN(S(=O)(=O)c4cccc5nsnc45)C3)CC2)c1 (stereo unspecified)	inconclusive: 35.5 µM [inhibitor, single point]
O=C(NCC(c1cccnc1)N1CCN(c2ccccc2F)CC1)C(=O)Nc1ccc(F)cc1F (stereo unspecified)	inactive
O=C(CN1CCN(c2ccccn2)CC1)Nc1ccc2ccccc2c1	inactive
Cc1ccc(C)c(NC(=O)c2cc[n+](C)cc2)c1	inconclusive: 35.5 µM [inhibitor, single point]
O=C(CN1CCC(O)(c2ccccc2F)CC1)NCCc1c[nH]c2ccccc12	inconclusive: 1.03 µM [inhibitor, full curve, poor fit]
Cc1cccc(NS(=O)(=O)c2ccc(C)c(C(=O)N3CCN(C(=O)c4ccco4)CC3)c2)c1	inconclusive: 28.2 µM [inhibitor, partial curve, poor fit]
O=C(c1cc(C2CC2)nn1-c1ccccc1)N1CCN(S(=O)(=O)c2ccccc2)CC1	inconclusive: 35.5 µM [inhibitor, single point]
Cc1ccc(C(=O)Nc2cccnc2Cl)cc1Cl	inconclusive: 1 µM [activator, full curve, poor fit]
CC1CCCN(CCSc2ccc(Cl)cc2)C1 (stereo unspecified)	inconclusive: 29.1 µM [inhibitor, single point]
Cc1ccccc1OCc1nc2c3cnn(-c4cccc(F)c4)c3ncn2n1	inactive
COc1ccc(NC(=O)c2cc3ccccc3o2)cc1S(=O)(=O)N1CCCCC1	inconclusive: 35.5 µM [inhibitor, single point]
Cn1c(=O)n(C)c2cc([N+](=O)[O-])c(N3CCN(C(=O)c4ccccc4Cl)CC3)cc21	inconclusive: 6.51 µM [inhibitor, partial curve, poor fit]
CCOC(=O)N1CCN(C(=O)CSCc2ccc(Cl)cc2)CC1	inconclusive: 15.8 µM [inhibitor, single point]
COc1cccc(C(=O)Nc2cc3c(cc2C(C)=O)OCCO3)c1	inactive
COC(=O)C(C(=O)N1CCN(C)CC1)C1CCCCCC1 (stereo unspecified)	inactive
O=C(COC(=O)c1sc2ccccc2c1Cl)NC1CCCCC1	inactive
Cc1nn2c(-c3ccccc3)ccnc2c1-c1ccccc1	inconclusive: 8.2 µM [activator, partial curve]
O=C(NCCc1ccccc1)C1CCCN(C(=O)Nc2ccc(F)cc2)C1 (stereo unspecified)	inconclusive: 31.6 µM [inhibitor, single point]
N=c1oc2cc(O)ccc2cc1C(=O)Nc1nc2ccccc2s1	inconclusive: 6.51 µM [activator, partial curve]
COCc1ccc(CN2CCCC(C(=O)c3sccc3C)C2)o1 (stereo unspecified)	inactive
Cc1nc2sccn2c(=O)c1CCN1CCC(=C(c2ccccc2)c2ccc(F)cc2)CC1	inconclusive: 16.4 µM [inhibitor, single point] and inconclusive: 32.6 µM [activator, single point]

SMILES	Potency
CC1CCCCN1CCCNC(=O)c1cc(Sc2cccc(Cl)c2)nc2ccccc12 (stereo unspecified)	inactive
c1ccc2c(c1)N1CCN=C1N2CCN1CCCCC1	inactive
CC1CCCCN1CCNC(=O)c1ccc2c(=O)n(Cc3ccc(Cl)cc3)c(=S)[nH]c2c1 (stereo unspecified)	inconclusive: 35.5 µM [inhibitor, single point]
O=C(COc1ncnc2ccc(Br)cc12)NCc1ccco1	inconclusive: 5.62 µM [inhibitor, partial curve]
COC(=O)c1oc2ccc(Cl)cc2c1N	inactive
CCOC(=O)c1c(-c2ccccc2)csc1NC(=O)C(C)NCc1ccco1 (stereo unspecified)	inconclusive: 10 µM [inhibitor, partial curve, poor fit]
Cc1c(C(=O)OC2CCC(C)CC2)[nH]c2c1C(=O)CCC2 (stereo unspecified)	inconclusive: 18.4 µM [inhibitor, single point]
C=CCN1C(=O)[C@]2(O[C@H](C)CC3=CCCC32)c2c(Br)cccc21 (stereo partly specified)	inconclusive: 3.35 µM [activator, partial curve]
CC(C)CC(=O)Nc1ccc2c(c1)oc1ccccc12	inconclusive: 35.5 µM [inhibitor, single point]
COc1ccc(C(=O)/C=C/c2ccc(OC)c(Cn3nnc4ccccc43)c2)cc1	inconclusive: 20 µM [inhibitor, partial curve, poor fit]
O=C(c1ccccc1Sc1ccccc1[N+](=O)[O-])N1CCCCC1	inactive
Cc1cc(C)cc(N(C(=O)c2cccs2)C2C=CS(=O)(=O)C2)c1 (stereo unspecified)	inconclusive: 2.82 µM [inhibitor, partial curve, poor fit]
O=C(Cc1ccccc1)NNC(=O)c1ccccc1C(=O)O	inconclusive: 10 µM [activator, partial curve, poor fit]
FC(F)Sc1ccc(Nc2ncnc3nc[nH]c23)cc1	inactive
COc1ccc(/C=C2\CN(Cc3ccccc3)C/C(=C\c3ccc(OC)cc3)C2=O)cc1	active: 7.94 µM
CCCc1nnc(NC(=O)c2cc(=O)c3ccccc3o2)s1	inactive
CN(C)c1ccc(C(=O)OCC(=O)NC2CCCCCC2)cc1	inconclusive: 14.1 µM [inhibitor, partial curve, poor fit]
O=C(/C=C/c1cccc(Cl)c1)NCc1cccs1	inconclusive: 5.8 µM [inhibitor, partial curve, poor fit]
Cc1cccc(/C=N/NC(=O)c2ccc(NC(=O)c3ccccc3C)cc2)n1	inactive
CCCCNC(=O)c1ccc2c(c1)N(CC)C(=O)c1ccccc1S2	inconclusive: 10 µM [inhibitor, partial curve, poor fit]
COc1cccc(-n2cnc3scc(-c4cccs4)c3c2=O)c1	inactive
COc1ccc(-c2oc3ccccc3c(=O)c2OC(C)=O)cc1	inconclusive: 35.5 µM [inhibitor, single point]
Cc1cc(C)n2nc(N)c(N=Nc3ccc(Cl)cc3)c2n1	inconclusive: 29.1 µM [inhibitor, single point]

Reprinted at random: 3 compounds from above, in no set order.
SMILES	Potency
COc1cccc(-n2cnc3scc(-c4cccs4)c3c2=O)c1	inactive
Cc1cccc(/C=N/NC(=O)c2ccc(NC(=O)c3ccccc3C)cc2)n1	inactive
COc1ccc(-c2oc3ccccc3c(=O)c2OC(C)=O)cc1	inconclusive: 35.5 µM [inhibitor, single point]
